Measured values reported in the supplement of paper PMC12067093, “Discovery and optimisation of a covalent ligand for TRIM25 and its application to targeted protein ubiquitination” (Chemical Science, 2025).
The list shows a part of the results.

Each target was assayed with Cc1cc(ccc1-c1ccccc1)C(=O)N1CCCN(CC1)C(=O)CCl [compound 10] (assay: probe-labelled cysteine peptide fold change vs DMSO (competition) (log2 fold change); higher = less target engagement (more negative = stronger competition)). Settings: 10 µM; THP-1; incubation time: 4 h.
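Note: competitive profiling in live THP-1 cells: cysteine peptides tagged with an iodoacetamide desthiobiotin (IA-DTB) probe, intensity after compound treatment relative to DMSO-treated cells.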

Target | probe-labelled cysteine peptide fold change
DBR1_Q9UK59_36_RGPGPVDLLLCCGDFQAVR (UniProt Q9UK59) | 0.0792
DCAF13_Q9NV06_190_TNPICSMTWGFDSISSVK (UniProt Q9NV06) | 0.00434
DCTN4_Q9UJW0_70_CANCFDCPGCMHTLSTR (UniProt Q9UJW0) | 0.128
CYFIP1_Q7L576_1124_GPLPSNGVMHVDECVEFHR (UniProt Q7L576) | 0.0556
CUL2_Q13617_282_MVADHLQFLHAECHNIIR (UniProt Q13617) | -0.000918
CTR9_Q6PD62_533_EHPNYVDCYLR (UniProt Q6PD62) | 0.106
CUL1_Q13616_355_CGEAALNDPK (UniProt Q13616) | -0.148
CTSS_P25774_180_GCNGGFMTTAFQYIIDNK (UniProt P25774) | -0.0125
CUL7_Q14999_1405_HSWPVASICHTLNPR (UniProt Q14999) | -0.0598
CWC27_Q6UX04_164_SCEVLFNPFDDIIPR (UniProt Q6UX04) | 0.0259
CWC22_Q9HCG8_497_ELCNMILDCCAQQR (UniProt Q9HCG8) | 0.0134
CYB5R1_Q9UHQ9_278+288_EHLPAPGDDVLVLLCGPPPMVQLACHPNLDK (UniProt Q9UHQ9) | 0.257
DCTPP1_Q9H773_110_CRVDLPLAVLSK (UniProt Q9H773) | 0.139
CUL7_Q14999_952_CQQGGIDTR (UniProt Q14999) | -0.417
CYB5R3_P00387_204_DPDDHTVCHLLFANQTEK (UniProt P00387) | -0.099
CUL4A_Q13619_289_VITYLDHSTQKPLIACVEK (UniProt Q13619) | -0.0974
CTPS2_Q9NRF8_313_DCYASVFK (UniProt Q9NRF8) | 0.13
CTSG_P08311_207_GDSGGPLLCNNVAHGIVSYGK (UniProt P08311) | -0.207

Target | probe-labelled cysteine peptide fold change
CUL5_Q93034_281_ETILAECQGMIK (UniProt Q93034) | 0.0437
CUL5_Q93034_265_RECNSVEALMECCVNALVTSFK (UniProt Q93034) | 0.18
DAZAP1_Q96EP5_124_IFVGGIPHNCGETELREYFK (UniProt Q96EP5) | -0.158
CYB5R3_P00387_274+284_DHLPPPEEEPLVLMCGPPPMIQYACLPNLDHVGHPTER (UniProt P00387) | 0.133
CTR9_Q6PD62_207_LGMGHCFVK (UniProt Q6PD62) | -0.0764
DARS2_Q6PI48_54_TNTCGELR (UniProt Q6PI48) | 0.146
CTSS_P25774_213_CQYDSK (UniProt P25774) | 0.0136
CXXC1_Q9P0U4_181+187_TEDCGHCDFCR (UniProt Q9P0U4) | -0.0321
CWF19L1_Q69YN2_11_LLACGDVEGK (UniProt Q69YN2) | -0.0743
DCAF12_Q5T6F0_141_DREPGGVTQQGCGIHAIELNPSR (UniProt Q5T6F0) | -0.144
DCTN1_Q14203_742_YYQHLYSIHLAEQPEDCTMQLADHIK (UniProt Q14203) | -0.00829
CXorf38_Q8TB03_103_NGDVHWGNCRPGR (UniProt Q8TB03) | -0.04
CTSZ_Q9UBR2_296_YNLAIEEHCTFGDPIV (UniProt Q9UBR2) | -0.348
CUL3_Q13618_316_TMCECMSSYLR (UniProt Q13618) | 0.0604
CXXC1_Q9P0U4_38_KPDINCFMIGCDNCNEWFHGDCIR (UniProt Q9P0U4) | 0.0402
CXorf21_Q9HAI6_117_ETYLVPSSCK (UniProt Q9HAI6) | -0.19
CUL1_Q13616_137_VLNGICAYLNR (UniProt Q13616) | -0.0914
DCAF8_Q5TAQ9_273_VAELSATQCCK (UniProt Q5TAQ9) | -0.261

Same assay, conditions: 50 µM; THP-1; incubation time: 4 h

Target | probe-labelled cysteine peptide fold change
DBR1_Q9UK59_36_RGPGPVDLLLCCGDFQAVR (UniProt Q9UK59) | -0.183
DCAF13_Q9NV06_190_TNPICSMTWGFDSISSVK (UniProt Q9NV06) | -0.0491
DCTN4_Q9UJW0_70_CANCFDCPGCMHTLSTR (UniProt Q9UJW0) | 0.00716
CYFIP1_Q7L576_1124_GPLPSNGVMHVDECVEFHR (UniProt Q7L576) | 0.126
CUL2_Q13617_282_MVADHLQFLHAECHNIIR (UniProt Q13617) | -0.0663
CTR9_Q6PD62_533_EHPNYVDCYLR (UniProt Q6PD62) | 0.142
CUL1_Q13616_355_CGEAALNDPK (UniProt Q13616) | 0.0469
CTSS_P25774_180_GCNGGFMTTAFQYIIDNK (UniProt P25774) | -0.142
CUL7_Q14999_1405_HSWPVASICHTLNPR (UniProt Q14999) | -0.0134
CWC27_Q6UX04_164_SCEVLFNPFDDIIPR (UniProt Q6UX04) | 0.0151
CWC22_Q9HCG8_497_ELCNMILDCCAQQR (UniProt Q9HCG8) | -0.685
CYB5R1_Q9UHQ9_278+288_EHLPAPGDDVLVLLCGPPPMVQLACHPNLDK (UniProt Q9UHQ9) | -0.159
DCTPP1_Q9H773_110_CRVDLPLAVLSK (UniProt Q9H773) | 0.122
CUL7_Q14999_952_CQQGGIDTR (UniProt Q14999) | -0.0198
CYB5R3_P00387_204_DPDDHTVCHLLFANQTEK (UniProt P00387) | 0.158
CUL4A_Q13619_289_VITYLDHSTQKPLIACVEK (UniProt Q13619) | -0.471
CTPS2_Q9NRF8_313_DCYASVFK (UniProt Q9NRF8) | 0.171
CTSG_P08311_207_GDSGGPLLCNNVAHGIVSYGK (UniProt P08311) | -0.197

Target | probe-labelled cysteine peptide fold change
CUL5_Q93034_281_ETILAECQGMIK (UniProt Q93034) | -0.0471
CUL5_Q93034_265_RECNSVEALMECCVNALVTSFK (UniProt Q93034) | 0.12
DAZAP1_Q96EP5_124_IFVGGIPHNCGETELREYFK (UniProt Q96EP5) | -0.435
CYB5R3_P00387_274+284_DHLPPPEEEPLVLMCGPPPMIQYACLPNLDHVGHPTER (UniProt P00387) | 0.373
CTR9_Q6PD62_207_LGMGHCFVK (UniProt Q6PD62) | -0.245
DARS2_Q6PI48_54_TNTCGELR (UniProt Q6PI48) | 0.241
CTSS_P25774_213_CQYDSK (UniProt P25774) | -0.108
CXXC1_Q9P0U4_181+187_TEDCGHCDFCR (UniProt Q9P0U4) | -0.0477
CWF19L1_Q69YN2_11_LLACGDVEGK (UniProt Q69YN2) | 0.168
DCAF12_Q5T6F0_141_DREPGGVTQQGCGIHAIELNPSR (UniProt Q5T6F0) | -0.282
DCTN1_Q14203_742_YYQHLYSIHLAEQPEDCTMQLADHIK (UniProt Q14203) | -0.241
CXorf38_Q8TB03_103_NGDVHWGNCRPGR (UniProt Q8TB03) | 0.0793
CTSZ_Q9UBR2_296_YNLAIEEHCTFGDPIV (UniProt Q9UBR2) | -0.258
CUL3_Q13618_316_TMCECMSSYLR (UniProt Q13618) | -0.0491
CXXC1_Q9P0U4_38_KPDINCFMIGCDNCNEWFHGDCIR (UniProt Q9P0U4) | -1.06
CXorf21_Q9HAI6_117_ETYLVPSSCK (UniProt Q9HAI6) | -0.445
CUL1_Q13616_137_VLNGICAYLNR (UniProt Q13616) | 0.0528
DCAF8_Q5TAQ9_273_VAELSATQCCK (UniProt Q5TAQ9) | -0.433
